## Library screen at single concentrations

The filed quantity is “Percent Effect” (%).
The record does not define 0% and 100%; most values in the screen are far below 50% and negative numbers occur (in some assays of this library far below -100).
This is an unselected part of the compounds tested.
Two or more numbers in one place are separate tests of the same structure; such repeats can differ widely.

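Growth of Mycobacterium tuberculosis over 4 days (cholesterol / DPPC medium with tyloxapol); the read-out is not stated. Concentration: 50 µM. The record gives no direction; compounds that gave an IC50 in retests scored well above the rest, so higher reads as more growth inhibition. Of about 69,000 compounds tested this way, about 370 (0.54%) reached 50% or more in at least one test.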

* Cc1csc(CCCNc2ccc(S(N)(=O)=O)cc2C#N)n1 : 2.492%
* CN(CC1(CO)CCCC1)[C@@H]1c2ccccc2C2(CCNCC2)[C@H]1O : -1.915%
* Cc1cc(N2CCC(C(=O)O)(n3ccc(C(C)C)n3)CC2)nc(N)n1 : -16.31%
* Cc1nn(CCO)cc1CN1CCCN(C2CCCC2)CC1 : -13.92%
* COc1ccc(C(=O)N2CCC3(CCC(=O)N(C(C)C)C3)CC2)cc1C : -4.7%
* N#Cc1ccc(NC(=O)N2CCCCC2CN2CCCC2=O)cc1 (configuration not stated) : -0.5338%
* CN(Cc1ccccc1NCc1cccnc1)C(=O)c1cccs1 : 15.96%
* NS(=O)(=O)Cc1cccc(C(=O)N2CCCC(n3cccn3)C2)c1 (configuration not stated) : 1.962%
* CO[C@H]1CN(C(=O)c2cc3ccccc3[nH]2)CC[C@H]1N : -20.49%
* O=C(O)C(F)(F)F.[H][C@]12CN(CC(C)C)C[C@@]1([H])S(=O)(=O)CC[C@@H]2C(=O)NCC(C)C : 24.13%
* Cc1nc(C)n(CC2CCCCN2Cc2nnc(-c3ccco3)o2)n1 (configuration not stated) : -4.182% & -11.66%
* Cc1ccccc1OCCCNC(=O)C1(C)CC(=O)N2C=CC=CC2=N1 (configuration not stated) : 15.71% & 5.093%
* [H][C@@]12CCN(C(=O)C3CCCO3)[C@]1([H])CCC(=O)N2Cc1csc(C)n1 (some centres not stated) : 0.9154%
* Cc1cc(C)c2cc(C(=O)N3CCNC(=O)C3)[nH]c2c1 : -20.99%
* Cc1nnc(C(C)N2CCN(Cc3ccc(C(F)(F)F)cc3)CC2)o1 (configuration not stated) : 22.12%
* CC(C)NC(=O)CCCn1cnc2ccccc2c1=O : -47.68%
* CC(C)(C)c1nnc(CN2CCOC(Cn3cncn3)C2)o1 (configuration not stated) : 7.404%
* O=C(O)C(F)(F)F.O=C(O)C(F)(F)F.[H][C@@]12CCN(c3nncs3)[C@@]1([H])CCN2Cc1csc(C)n1 : -6.99%
* [H][C@@]12COC[C@]1(C(=O)NCc1ccccn1)CN(c1cc(OC)ncn1)C2 : 10.79%
* Cc1cc(F)ccc1CNCCn1cccn1 : 7.152%
* CC(C)Nc1cc(N2CCCC3(CN(C)C(=O)O3)C2)ncn1 (configuration not stated) : -0.07141%
* Cc1ccc(S(=O)(=O)n2ccn(C(=O)CC(C)C)c2=O)cc1 : -1.749%
* COc1ccc(C[C@H]2CNCC[C@@H]2OCC2CC2)cc1 : 5.063%
* CCCNC(=O)CCC(=O)n1nc(C)c2ccccc21 : -8.747%
* CN1CC(c2ccccc2)CC12CCN(C(=O)c1ccc(F)cc1)CC2 (configuration not stated) : -14.72%
* CN(C)C(=O)c1ccc2c(c1)N(C)C(CC(=O)NCc1ccno1)CO2 (configuration not stated) : -21.84%
* Cc1ccc(CCCC(=O)N2CCC(=O)Nc3cccnc32)s1 : -4.725%
* CCCc1nc(C)cc(NCc2ccc(S(N)(=O)=O)cc2)n1 : 3.554%
* Cc1cc(C)n(-c2cccc(C(=O)Nc3n[nH]c(C4CCCO4)n3)c2)n1 (configuration not stated) : 2.997%
* CCc1ccc(Cn2nccc2NC(=O)C2CCS(=O)(=O)C2)cc1 (configuration not stated) : -7.212%
* O=C(O)C(F)(F)F.[H][C@]12CCN(C(=O)c3ccc(C)o3)C[C@@]1([H])OCCN(C1CCOCC1)C2 : -3.031%
* Cn1c2c(ccc1=O)CC(NC(=O)c1ccsc1)CC2 (configuration not stated) : -11.27%
* COCCC1COC2(CCN(C(C)=O)CC2)C1 (configuration not stated) : -13.07%
* O=C(c1cc(CC2(NCc3ccccc3)COC2)no1)N1CCCCC1 : -26.03%
* N[C@H]1CN(C(=O)c2ccccc2Oc2ccccc2)C[C@@H]1C1CC1 : 13.75%
* COc1ncccc1CN1CCC2(CC1)CC(OCC1CC1)CO2.O=C(O)C(F)(F)F (configuration not stated) : -20.97%
* CCC1c2ccsc2CCN1C(=O)NCc1cccnc1N(C)C (configuration not stated) : -13.24%
* CCC1(CC)CC(=O)N(CC(O)c2cc(F)ccc2F)C1=O (configuration not stated) : 9.655%
* COc1ccc(C(=O)N2C[C@@H](CN3CCCC3)[C@@H](CO)C2)c(C)c1 : -27.39%
* CC(C1CCN(Cc2c(Cl)ccc(O)c2Cl)CC1)N1CCN(C)CC1 (configuration not stated) : 7.135% & 1.321%
* O=C(Nc1ccccn1)c1nc(N2CCCC2)ncc1Cl : -22.66%
* O=C(CN1C=Nc2ccccc2S1(=O)=O)NCCc1cccs1 : -2.893%
* CCc1nnc(NC(=O)NCCN(C)C(=O)OC(C)(C)C)s1 : -6.025%
* O=C(CCC1CC1)N1C[C@@H](CN2CCCC2)[C@@H](CO)C1 : -27.5%
* CCN1CCC2(CCC1=O)CN(c1ccnc(SC)n1)CCN2C (configuration not stated) : 9.185%
* COc1cccc(CN2CCCCC2CN2CCOCC2)c1F (configuration not stated) : -5.804%
* CC(C)(C)CNC[C@H]1Cn2ccnc2CO1 : -18.59%

The first 5 entries again:

* Cc1csc(CCCNc2ccc(S(N)(=O)=O)cc2C#N)n1 : 2.492%
* CN(CC1(CO)CCCC1)[C@@H]1c2ccccc2C2(CCNCC2)[C@H]1O : -1.915%
* Cc1cc(N2CCC(C(=O)O)(n3ccc(C(C)C)n3)CC2)nc(N)n1 : -16.31%
* Cc1nn(CCO)cc1CN1CCCN(C2CCCC2)CC1 : -13.92%
* COc1ccc(C(=O)N2CCC3(CCC(=O)N(C(C)C)C3)CC2)cc1C : -4.7%

The values are deposited in ChEMBL (CHEMBL3988442, “University of Dundee, Small-Polar-MMV Screening Library” (2021)).